Results are given in words; binding and its absence hold for the method and conditions named. Binding seen in cells or lysates may run through a third protein. These calls come from enrichment with a bait or labelling near it, and not all partners need be listed.
B1: Rrp12 (protein, UniProt Q5JTH9 1-1297)
chain: MGRSGKLPSGVSAKLKRWKKGHSSDSNPAICRHRQAARSRFFSRPSGRSDLTVDAVKLHNELQSGSLRLGKSEAPETPMEEEAELVLTEKSSGTFLSGLSDCTNVTFSKVQRFWESNSAAHKEICAVLAAVTEVIRSQGGKETETEYFAALMTTMEAVESPESLAAVAYLLNLVLKRVPSPVLIKKFSDTSKAFMDIMSAQASSGSTSVLRWVLSCLATLLRKQDLEAWGYPVTLQVYHGLLSFTVHPKPKIRKAAQHGVCSVLKGSEFMFEKAPAHHPAAISTAKFCIQEIEKSGGSKEATTTLHMLTLLKDLLPCFPEGLVKSCSETLLRVMTLSHVLVTACAMQAFHSLFHARPGLSTLSAELNAQIITALYDYVPSENDLQPLLAWLKVMEKAHINLVRLQWDLGLGHLPRFFGTAVTCLLSPHSQVLTAATQSLKEILKECVAPHMADIGSVTSSASGPAQSVAKMFRAVEEGLTYKFHAAWSSVLQLLCVFFEACGRQAHPVMRKCLQSLCDLRLSPHFPHTAALDQAVGAAVTSMGPEVVLQAVPLEIDGSEETLDFPRSWLLPVIRDHVQETRLGFFTTYFLPLANTLKSKAMDLAQAGSTVESKIYDTLQWQMWTLLPGFCTRPTDVAISFKGLARTLGMAISERPDLRVTVCQALRTLITKGCQAEADRAEVSRFAKNFLPILFNLYGQPVAAGDTPAPRRAVLETIRTYLTITDTQLVNSLLEKASEKVLDPASSDFTRLSVLDLVVALAPCADEAAISKLYSTIRPYLESKAHGVQKKAYRVLEEVCASPQGPGALFVQSHLEDLKKTLLDSLRSTSSPAKRPRLKCLLHIVRKLSAEHKEFITALIPEVILCTKEVSVGARKNAFALLVEMGHAFLRFGSNQEEALQCYLVLIYPGLVGAVTMVSCSILALTHLLFEFKGLMGTSTVEQLLENVCLLLASRTRDVVKSALGFIKVAVTVMDVAHLAKHVQLVMEAIGKLSDDMRRHFRMKLRNLFTKFIRKFGFELVKRLLPEEYHRVLVNIRKAEARAKRHRALSQAAVEEEEEEEEEEEPAQGKGDSIEEILADSEDEEDNEEEERSRGKEQRKLARQRSRAWLKEGGGDEPLNFLDPKVAQRVLATQPGPGRGRKKDHGFKVSADGRLIIREEADGNKMEEEEGAKGEDEEMADPMEDVIIRNKKHQKLKHQKEAEEEELEIPPQYQAGGSGIHRPVAKKAMPGAEYKAKKAKGDVKKKGRPDPYAYIPLNRSKLNRRKKMKLQGQFKGLVKAARRGSQVGHKNRRKDRRP
B2: Nop14 (protein, UniProt P78316 1-857)
chain: MAKAKKVGARRKASGAPAGARGGPAKANSNPFEVKVNRQKFQILGRKTRHDVGLPGVSRARALRKRTQTLLKEYKERDKSNVFRDKRFGEYNSNMSPEEKMMKRFALEQQRHHEKKSIYNLNEDEELTHYGQSLADIEKHNDIVDSDSDAEDRGTLSAELTAAHFGGGGGLLHKKTQQEGEEREKPKSRKELIEELIAKSKQEKRERQAQREDALELTEKLDQDWKEIQTLLSHKTPKSENRDKKEKPKPDAYDMMVRELGFEMKAQPSNRMKTEAELAKEEQEHLRKLEAERLRRMLGKDEDENVKKPKHMSADDLNDGFVLDKDDRRLLSYKDGKMNVEEDVQEEQSKEASDPESNEEEGDSSGGEDTEESDSPDSHLDLESNVESEEENEKPAKEQRQTPGKGLISGKERAGKATRDELPYTFAAPESYEELRSLLLGRSMEEQLLVVERIQKCNHPSLAEGNKAKLEKLFGFLLEYVGDLATDDPPDLTVIDKLVVHLYHLCQMFPESASDAIKFVLRDAMHEMEEMIETKGRAALPGLDVLIYLKITGLLFPTSDFWHPVVTPALVCLSQLLTKCPILSLQDVVKGLFVCCLFLEYVALSQRFIPELINFLLGILYIATPNKASQGSTLVHPFRALGKNSELLVVSAREDVATWQQSSLSLRWASRLRAPTSTEANHIRLSCLAVGLALLKRCVLMYGSLPSFHAIMGPLQALLTDHLADCSHPQELQELCQSTLTEMESQKQLCRPLTCEKSKPVPLKLFTPRLVKVLEFGRKQGSSKEEQERKRLIHKHKREFKGAVREIRKDNQFLARMQLSEIMERDAERKRKVKQLFNSLATQEGEWKALKRKKFKK
B3: Baz1b (protein, UniProt Q9UIG0 1-1483)
chain: MAPLLGRKPFPLVKPLPGEEPLFTIPHTQEAFRTREEYEARLERYSERIWTCKSTGSSQLTHKEAWEEEQEVAELLKEEFPAWYEKLVLEMVHHNTASLEKLVDTAWLEIMTKYAVGEECDFEVGKEKMLKVKIVKIHPLEKVDEEATEKKSDGACDSPSSDKENSSQIAQDHQKKETVVKEDEGRRESINDRARRSPRKLPTSLKKGERKWAPPKFLPHKYDVKLQNEDKIISNVPADSLIRTERPPNKEIVRYFIRHNALRAGTGENAPWVVEDELVKKYSLPSKFSDFLLDPYKYMTLNPSTKRKNTGSPDRKPSKKSKTDNSSLSSPLNPKLWCHVHLKKSLSGSPLKVKNSKNSKSPEEHLEEMMKMMSPNKLHTNFHIPKKGPPAKKPGKHSDKPLKAKGRSKGILNGQKSTGNSKSPKKGLKTPKTKMKQMTLLDMAKGTQKMTRAPRNSGGTPRTSSKPHKHLPPAALHLIAYYKENKDREDKRSALSCVISKTARLLSSEDRARLPEELRSLVQKRYELLEHKKRWASMSEEQRKEYLKKKREELKKKLKEKAKERREKEMLERLEKQKRYEDQELTGKNLPAFRLVDTPEGLPNTLFGDVAMVVEFLSCYSGLLLPDAQYPITAVSLMEALSADKGGFLYLNRVLVILLQTLLQDEIAEDYGELGMKLSEIPLTLHSVSELVRLCLRRSDVQEESEGSDTDDNKDSAAFEDNEVQDEFLEKLETSEFFELTSEEKLQILTALCHRILMTYSVQDHMETRQQMSAELWKERLAVLKEENDKKRAEKQKRKEMEAKNKENGKVENGLGKTDRKKEIVKFEPQVDTEAEDMISAVKSRRLLAIQAKKEREIQEREMKVKLERQAEEERIRKHKAAAEKAFQEGIAKAKLVMRRTPIGTDRNHNRYWLFSDEVPGLFIEKGWVHDSIDYRFNHHCKDHTVSGDEDYCPRSKKANLGKNASMNTQHGTATEVAVETTTPKQGQNLWFLCDSQKELDELLNCLHPQGIRESQLKERLEKRYQDIIHSIHLARKPNLGLKSCDGNQELLNFLRSDLIEVATRLQKGGLGYVEETSEFEARVISLEKLKDFGECVIALQASVIKKFLQGFMAPKQKRRKLQSEDSAKTEEVDEEKKMVEEAKVASALEKWKTAIREAQTFSRMHVLLGMLDACIKWDMSAENARCKVCRKKGEDDKLILCDECNKAFHLFCLRPALYEVPDGEWQCPACQPATARRNSRGRNYTEESASEDSEDDESDEEEEEEEEEEEEEDYEVAGLRLRPRKTIRGKHSVIPPAARSGRRPGKKPHSTRRSQPKAPPVDDAEVDELVLQTKRSSRRQSLELQKCEEILHKIVKYRFSWPFREPVTRDEAEDYYDVITHPMDFQTVQNKCSCGSYRSVQEFLTDMKQVFTNAEVYNCRGSHVLSCMVKTEQCLVALLHKHLPGHPYVRRKRKKFPDRLAEDEGDSEPEAVGQSRGRRQKK
B4: Noc4l (protein, UniProt Q9BVI4 1-516)
chain: MEREPGAAGVRRALGRRLEAVLASRSEANAVFDILAVLQSEDQEEIQEAVRTCSRLFGALLERGELFVGQLPSEEMVMTGSQGATRKYKVWMRHRYHSCCNRLGELLGHPSFQVKELALSALLKFVQLEGAHPLEKSKWEGNYLFPRELFKLVVGGLLSPEEDQSLLLSQFREYLDYDDTRYHTMQAAVDAVARVTGQHPEVPPAFWNNAFTLLSAVSLPRREPTVSSFYVKRAELWDTWKVAHLKEHRRVFQAMWLSFLKHKLPLSLYKKVLLIVHDAILPQLAQPTLMIDFLTRACDLGGALSLLALNGLFILIHKHNLEYPDFYRKLYGLLDPSVFHVKYRARFFHLADLFLSSSHLPAYLVAAFAKRLARLALTAPPEALLMVLPFICNLLRRHPACRVLVHRPHGPELDADPYDPGEEDPAQSRALESSLWELQALQRHYHPEVSKAASVINQALSMPEVSIAPLLELTAYEIFERDLKKKGPEPVPLEFIPAQGLLGRPGELCAQHFTLS

What follows are binders tested against Biotin-FOXC1 (mouse) (UniProt Q61572) (assay: affinity purification with mass spectrometry; streptavidin-agarose precipitation of biotinylated FOXC1 from nuclear extract of stable HEK293T cells (293T-Biotin-FOXC1); IP350 buffer (350 mM NaCl, 20 mM Tris-HCl pH 7.5, 0.5% NP40, 1 mM EDTA, 10% glycerin); SDS-PAGE, LC-ESI-MS/MS; proteins of the 293T-Biotin control deducted).

binding, binds:
B1
B2
B3
B4
